Data on 17 compounds can be found in PubChem BioAssay AID256 (DTP/NCI, 2004).

The list shows only some results of the screen, not a fair sample: it is rich in T/C values a quarter to a half above the control, in often repeated tests (any T/C) and in doses without a T/C. Other doses and runs of a compound stand elsewhere. T/C is the treated group as % of the vehicle group. Some entries give survivors of the animals treated and no T/C: the source holds a T/C of zero for them, seemingly a mark for toxic or unscored doses. Some survivor counts are full or nearly so, which does not show that the dose was tolerated: the source hardly ever lists a survival T/C far under the control, and the zero likely stands for such cases as well. Counts of survivors are from the toxicity check (mostly the fifth day) where no day follows; animals may have died later. Schedule codes are those of the source, read here as Q, the interval in days (D) or hours (H), X, the number of doses. Some doses were run more than once; the results are listed from low to high. For survival time, the PubChem record calls one and a half times the control and up active, and a quarter to a half above the control has no call in these data; cut-offs in other NCI protocols can differ. Some T/C values are followed by the survivors on the day toxicity was checked, most often the fifth; where none is given, no animal had died by that day.

The assay deals with CD2F1 mice, L1210 leukemia ip, survival T/C. Kind of assay: NCI In Vivo Anticancer Drug Screen. Data for tumor model L1210 Leukemia (intraperitoneal) in CD2F1 (CDF1) mice. As to conditions: higher T/C = longer survival. The method in brief: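 Implant tumor; dose compound or vehicle; measure endpoint in both groups; report treated divided by control.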
Where [1] appears, read: T/C endpoint: mean survival time, dose: 100.0 mg/kg/injection, schedule: Q04DX003 (ip), vehicle: saline with Tween-80.
[2] abbreviates: T/C endpoint: mean survival time, dose: 400.0 mg/kg/injection, schedule: Q01DX001 (ip), vehicle: saline with Tween-80.

On to `CN(C)c1cccc(C(C)(C)C)n1`, for which the survivor count is, setting by setting: (T/C endpoint: mean survival time, dose: 100.0 mg/kg/injection, schedule: Q04DX002 (ip), vehicle: saline) 0 of 3; (T/C endpoint: mean survival time, dose: 200.0 mg/kg/injection, schedule: Q04DX002 (ip), vehicle: saline) 0 of 3; (T/C endpoint: mean survival time, dose: 400.0 mg/kg/injection, schedule: Q04DX002 (ip), vehicle: saline) 0 of 3.
As to `CC1=NC2(CCCCC2)C[N+]1(Cc1ccccc1)Cc1ccccc1`, the survivor count (T/C endpoint: mean survival time, dose: 100.0 mg/kg/injection, schedule: Q01DX009 (ip), vehicle: acetone) is on record as 2 of 6.
Regarding `CC(=O)OCC#CCOC(C)=O`, the survivor count (T/C endpoint: mean survival time, dose: 100.0 mg/kg/injection, schedule: Q01DX009 (ip), vehicle: saline with Tween-80) is reported as 3 of 6 and the survivor count (T/C endpoint: mean survival time, dose: 200.0 mg/kg/injection, schedule: Q01DX009 (ip), vehicle: saline with Tween-80) was 0 of 6.
For `NC(=S)N/N=C/c1ccccn1`, the T/C is 132 % of control (T/C endpoint: mean survival time, dose: 6.7 mg/kg/injection, schedule: Q01DX009 (ip), vehicle: saline with Tween-80) and 148 % of control (T/C endpoint: mean survival time, dose: 10.0 mg/kg/injection, schedule: Q01DX009 (ip), vehicle: saline with Tween-80). Besides, the survivor count runs as follows: (T/C endpoint: mean survival time, dose: 12.5 mg/kg/injection, schedule: Q04DX002 (ip), vehicle: Klucel (hydroxypropylcellulose) (HPC)) 3 of 3; (T/C endpoint: mean survival time, dose: 15.0 mg/kg/injection, schedule: Q01DX009 (ip), vehicle: saline with Tween-80) 1 of 6; (T/C endpoint: mean survival time, dose: 25.0 mg/kg/injection, schedule: Q04DX002 (ip), vehicle: Klucel (hydroxypropylcellulose) (HPC)) 1 of 3; (T/C endpoint: mean survival time, dose: 50.0 mg/kg/injection, schedule: Q04DX002 (ip), vehicle: Klucel (hydroxypropylcellulose) (HPC)) 0 of 3; under setting [1], 0 of 6; (T/C endpoint: mean survival time, dose: 200.0 mg/kg/injection, schedule: Q04DX003 (ip), vehicle: saline with Tween-80) 0 of 6. Besides, the survivor count (T/C endpoint: mean survival time, dose: 400.0 mg/kg/injection, schedule: Q04DX003 (ip), vehicle: saline with Tween-80) is 0 of 6.
With `S=C(NCc1ccccc1)Nc1ncn[nH]1`, where the note is “T/C endpoint: mean survival time, dose: 200.0 mg/kg/injection, schedule: Q01DX001 (ip), vehicle: carboxymethylcellulose (CMC)”, the survivor count was 5 of 5.
With `CCOC(=O)Nc1cc2c3ccccc3ncc2c2ccccc12`, the survivor count under setting [1] is on record as 6 of 6.
With `Nc1nc(F)nc2c1ncn2C1OC(COC=O)C(OC=O)C1O` (centres undefined) (tested in a mixture with another compound), the T/C (T/C endpoint: mean survival time, dose: 150.0 mg/kg/injection, schedule: Q01DX005 (ip), vehicle: saline with Tween-80) is 140 % of control. Besides, the survivor count (T/C endpoint: mean survival time, dose: 225.0 mg/kg/injection, schedule: Q01DX009 (ip), vehicle: saline with Tween-80) is recorded as 2 of 2.
As for `COc1cccc2c1C(=O)c1c(O)c3c(c(O)c1C2=O)C[C@@](O)(C(=O)COC(=O)c1cccnc1)C[C@@H]3OC1CC(N)C(O)C(C)O1` (some centres undefined), the T/C was 133 % of control (T/C endpoint: mean survival time, dose: 0.75 mg/kg/injection, schedule: Q01DX009 (ip), vehicle: saline with Tween-80); 147 % of control (T/C endpoint: mean survival time, dose: 0.9 mg/kg/injection, schedule: Q01DX009 (ip), vehicle: saline); 138 % of control (T/C endpoint: mean survival time, dose: 1.5 mg/kg/injection, schedule: Q01DX009 (ip), vehicle: saline with Tween-80); 135 % of control (T/C endpoint: mean survival time, dose: 2.25 mg/kg/injection, schedule: Q01DX009 (ip), vehicle: saline).
Consider `O=c1[nH]c(=O)n(C2CC(O)C(CO)O2)cc1C(F)(F)F` (centres undefined), for which the T/C is 147 % of control (T/C endpoint: mean survival time, dose: 32.0 mg/kg/injection, schedule: Q01DX009 (ip), vehicle: water); 128 % of control (T/C endpoint: mean survival time, dose: 32.0 mg/kg/injection, schedule: Q03HX008 (ip), vehicle: water); 129 % of control (T/C endpoint: mean survival time, dose: 32.0 mg/kg/injection, schedule: Q03HX016 (ip), vehicle: water); 142 % of control (T/C endpoint: mean survival time, dose: 32.0 mg/kg/injection, schedule: Q03HX024 (ip), vehicle: water); 125 % of control (T/C endpoint: mean survival time, dose: 64.0 mg/kg/injection, schedule: Q03HX008 (ip), vehicle: water); 145 % of control (T/C endpoint: mean survival time, dose: 64.0 mg/kg/injection, schedule: Q03HX016 (ip), vehicle: water). Further, the T/C by setting is: (T/C endpoint: mean survival time, dose: 64.0 mg/kg/injection, schedule: Q03HX024 (ip), vehicle: water) 148 % of control; (T/C endpoint: mean survival time, dose: 128.0 mg/kg/injection, schedule: Q01DX009 (ip), vehicle: water) 140 % of control; (T/C endpoint: mean survival time, dose: 128.0 mg/kg/injection, schedule: Q03HX008 (ip), vehicle: water) 142 % of control; (T/C endpoint: mean survival time, dose: 512.0 mg/kg/injection, schedule: Q04DX003 (ip), vehicle: water) 130 % of control; (T/C endpoint: mean survival time, dose: 1024.0 mg/kg/injection, schedule: Q01DX001 (ip), vehicle: water) 128 % of control; (T/C endpoint: mean survival time, dose: 1024.0 mg/kg/injection, schedule: Q04DX003 (ip), vehicle: water) 145 % of control.
As for `Cc1ncc(COP(=O)(O)O)c(C=NC(C)C(=O)O)c1O.O.[Cu]` (centres undefined), the survivor count (T/C endpoint: mean survival time, dose: 100.0 mg/kg/injection, schedule: Q01DX001 (ip), vehicle: saline with Tween-80) was 0 of 3; the survivor count (T/C endpoint: mean survival time, dose: 200.0 mg/kg/injection, schedule: Q01DX001 (ip), vehicle: saline with Tween-80) is reported as 0 of 3; the survivor count under setting [2] is reported as 0 of 3.
For `CCN(CCO)c1ccc(N)cc1C`, the survivor count is, setting by setting: (T/C endpoint: mean survival time, dose: 100.0 mg/kg/injection, schedule: Q04DX003 (ip), vehicle: saline) 0 of 6; (T/C endpoint: mean survival time, dose: 200.0 mg/kg/injection, schedule: Q04DX003 (ip), vehicle: saline) 0 of 6; (T/C endpoint: mean survival time, dose: 400.0 mg/kg/injection, schedule: Q04DX003 (ip), vehicle: saline) 0 of 6.
As for `CC[C@@]1(OC(=O)CCC(=O)O)C(=O)OCc2c1cc1n(c2=O)Cc2cc3ccccc3nc2-1`, the T/C runs as follows: (T/C endpoint: median survival time, dose: 8.79 mg/kg/injection, schedule: Q04HX004 (iv), vehicle: water) 142 % of control; (T/C endpoint: median survival time, dose: 23.45 mg/kg/injection, schedule: Q04DX002 (ip), vehicle: water) 137 and 142 % of control. Also, the survivor count (T/C endpoint: median survival time, dose: 46.9 mg/kg/injection, schedule: Q04HX004 (iv), vehicle: water) was 0 of 6 and 2 of 6.
As for `C1CN2CN3CCN(CN1C3)C2`, the survivor count (T/C endpoint: mean survival time, dose: 200.0 mg/kg/injection, schedule: Q01DX009 (ip), vehicle: saline) is reported as 2 of 6.
`C=C1C=CC1=O`: the survivor count is given as 5 of 10 (T/C endpoint: mean survival time, dose: 0.1 micrograms/kg/injection, schedule: Q01DX006 (ip), vehicle: other); 4 of 10 (T/C endpoint: mean survival time, dose: 6.0 micrograms/kg/injection, schedule: Q01DX006 (ip), vehicle: other); 5 of 10 (T/C endpoint: mean survival time, dose: 10.0 micrograms/kg/injection, schedule: Q01DX006 (ip), vehicle: other); 4 of 10 (T/C endpoint: mean survival time, dose: 60.0 micrograms/kg/injection, schedule: Q01DX006 (ip), vehicle: other); 5 of 10 (T/C endpoint: mean survival time, dose: 600.0 micrograms/kg/injection, schedule: Q01DX006 (ip), vehicle: other); 2 of 10 (T/C endpoint: mean survival time, dose: 600.0 micrograms/kg/injection, schedule: Q01DX009 (ip), vehicle: other). Moreover, the survivor count is given as 3 of 10 (T/C endpoint: mean survival time, dose: 1000.0 micrograms/kg/injection, schedule: Q01DX006 (ip), vehicle: other) and 0 of 10 (T/C endpoint: mean survival time, dose: 1000.0 micrograms/kg/injection, schedule: Q01DX009 (ip), vehicle: other).
For the compound `CN1CCC(O)(c2ccccc2C2=NC(C)(C)CO2)CC1`, the survivor count under setting [2] is listed as 2 of 6.
On to `COc1cccc2c1C(=O)CC2`, for which the survivor count (T/C endpoint: mean survival time, dose: 150.0 mg/kg/injection, schedule: Q01DX009 (ip), vehicle: Klucel (hydroxypropylcellulose) (HPC)) was 3 of 6; the survivor count (T/C endpoint: mean survival time, dose: 225.0 mg/kg/injection, schedule: Q01DX009 (ip), vehicle: Klucel (hydroxypropylcellulose) (HPC)) was 3 of 6; the survivor count (T/C endpoint: mean survival time, dose: 335.0 mg/kg/injection, schedule: Q01DX009 (ip), vehicle: Klucel (hydroxypropylcellulose) (HPC)) was 0 of 6.
Regarding `O=C1CC2(C(=O)N1CN1CCCCC1)c1ccccc1-c1ccccc12`, the T/C by setting is: (T/C endpoint: mean survival time, dose: 200.0 mg/kg/injection, schedule: Q01DX009 (ip), vehicle: Klucel (hydroxypropylcellulose) (HPC)) 131 % of control; (T/C endpoint: mean survival time, dose: 400.0 mg/kg/injection, schedule: Q01DX009 (ip), vehicle: Klucel (hydroxypropylcellulose) (HPC)) 145 % of control [4 of 6 alive].
